Source: paper PMC9307627

Protein sequences, listed by entry. Tags and fused reporters are not part of them. Residues count along the entry.
UniProt P02769, 25-607: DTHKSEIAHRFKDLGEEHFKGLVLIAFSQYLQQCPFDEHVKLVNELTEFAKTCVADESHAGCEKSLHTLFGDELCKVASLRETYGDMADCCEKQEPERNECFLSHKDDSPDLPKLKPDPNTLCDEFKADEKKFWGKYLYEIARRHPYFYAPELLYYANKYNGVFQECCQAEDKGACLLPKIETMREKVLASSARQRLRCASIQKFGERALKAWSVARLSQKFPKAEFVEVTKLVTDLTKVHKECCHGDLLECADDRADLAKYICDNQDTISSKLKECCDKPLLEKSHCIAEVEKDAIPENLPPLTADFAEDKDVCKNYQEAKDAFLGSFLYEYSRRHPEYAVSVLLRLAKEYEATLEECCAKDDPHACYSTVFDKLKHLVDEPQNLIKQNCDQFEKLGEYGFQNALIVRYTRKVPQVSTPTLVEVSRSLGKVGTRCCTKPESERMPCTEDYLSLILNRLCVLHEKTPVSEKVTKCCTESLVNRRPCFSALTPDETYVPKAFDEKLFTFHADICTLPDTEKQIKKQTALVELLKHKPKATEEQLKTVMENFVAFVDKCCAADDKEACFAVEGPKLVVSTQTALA

Experiments:
Test in all cases: ELONA
[1] = biological target: T1, full-length human sclerostin (FL hSOST) (human) (UniProt Q9BQB4); details: recombinant protein, residues 25-213, protein details: His6, label: biotin, single-stranded DNA
T1 sequence (looked up): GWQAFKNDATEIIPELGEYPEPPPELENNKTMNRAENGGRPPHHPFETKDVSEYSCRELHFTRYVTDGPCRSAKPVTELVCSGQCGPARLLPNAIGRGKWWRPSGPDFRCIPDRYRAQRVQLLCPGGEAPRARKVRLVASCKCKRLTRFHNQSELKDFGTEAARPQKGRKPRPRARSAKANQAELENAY

[2] = biological target: BSA (UniProt P02769); details: commercial protein; label: biotin; single-stranded DNA
[3] = biological target: T2, sclerostin loop3-1 I135A,P136A,D137A (human) (UniProt Q9BQB4); details: residues 135-164; label: biotin; single-stranded DNA
T2 sequence (looked up): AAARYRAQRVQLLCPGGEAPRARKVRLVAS

[4] = biological target: T3, sclerostin loop3-2 R138A,Y139A,R140A (human) (UniProt Q9BQB4); details: residues 135-164; label: biotin; single-stranded DNA
T3 sequence (looked up): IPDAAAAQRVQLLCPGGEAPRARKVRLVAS

[5] = biological target: T4, sclerostin loop3-3 Q142A,R143A,V144A (human) (UniProt Q9BQB4); details: residues 135-164; label: biotin; single-stranded DNA
T4 sequence (looked up): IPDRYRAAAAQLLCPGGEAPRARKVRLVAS

[6] = biological target: T5, sclerostin loop3-4 Q145A,L146A,L147A (human) (UniProt Q9BQB4); details: residues 135-164; label: biotin; single-stranded DNA
T5 sequence (looked up): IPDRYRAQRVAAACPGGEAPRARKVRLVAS

[7] = biological target: T6, sclerostin loop3-6 G151A,E152A (human) (UniProt Q9BQB4); details: residues 135-164; label: biotin; single-stranded DNA
T6 sequence (looked up): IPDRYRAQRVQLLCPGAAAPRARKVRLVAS

[8] = biological target: T7, sclerostin loop3-8 R157A,K158A,V159A (human) (UniProt Q9BQB4); details: residues 135-164; label: biotin; single-stranded DNA
T7 sequence (looked up): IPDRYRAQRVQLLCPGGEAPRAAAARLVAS

Sequence: AGAGTTATAAATGGTAGAGGGAGCGGGCTAACCGGCTGTG [aptamer candidate 136]
- binding result ([1]; specific to loop3, Kd N/A): binds

Sequence: CGGGGTGTGGGTTCGTCGTTAGCTTGATTTGGCAGCTGCC [aptscl56]
- binding result [2]: no binding
- binding result [3]: binds more weakly
- binding result [4]: binds
- binding result [5]: binds
- binding result [6]: binds more weakly
- binding result [7]: binds
- binding result [8]: binds

Sequence: GGGGGTTTCCAGGGGGTCCTTGATGCTAGATTGTATG [aptamer candidate 36]
- binding result ([1]; specific to loop3, Kd N/A): binds

Sequence: GTCAGCTCTTGTGGTCCTCGCAGCGAAAAGGCTCTGGCGG [aptamer candidate 2]
- binding result ([1]; specific to loop3, no Kd given): binds

Sequence: TAGGATTGGCGGGCATTGCACTCCTTCAGGAGGTACGGTC [aptamer candidate 140]
- binding result ([1]; specific to loop3, Kd N/A): binds

For some assays here: A negative result means that nothing was seen under these conditions. For some assays here: At least one verdict was read from the data and is not stated in words by the source. For some assays here: Weaker means in comparison with the reference protein, sequence or condition of that experiment. For some assays here: Protein sequences can lack the tags named with them. For some assays here: For at least one entry, the source does not settle the construct or the ends of the probe.
